From ChEMBL document CHEMBL5528074 (J Med Chem, 2024) come the findings set out here.

For orientation: Papp B→A means the apparent permeability from the basolateral to the apical side of a cell layer. The Papp A→B is how fast a substance crosses the layer from the apical side.

Data set [1] can be described thus: in vitro. As to conditions: human, Caco-2.
The nature of data set [2]: in vitro. As to conditions: human, Caco-2. This is another data set of the same source.

`Nc1nc2ccc(C(=O)N3CCN(C(=O)/C=C/c4ccc(Br)cc4)CC3)cc2s1` showed a Papp B→A in the data set “in vitro [1]” of 11.8 ×10⁻⁶ cm/s. Moreover, in “in vitro [2]”, the apical-to-basolateral permeability (Papp A→B) was determined as 12.7 ×10⁻⁶ cm/s.
